Assay results taken from article PMC6622005.
Results are given in words; binding and its absence hold for the method and conditions named. In cells and extracts the contact can be indirect. Some results given as binding are weak or reduced against the parent protein; the word gives no strength.

By UniProt entry, the sequences of proteins in these tests, tags left out.
UniProt O95758: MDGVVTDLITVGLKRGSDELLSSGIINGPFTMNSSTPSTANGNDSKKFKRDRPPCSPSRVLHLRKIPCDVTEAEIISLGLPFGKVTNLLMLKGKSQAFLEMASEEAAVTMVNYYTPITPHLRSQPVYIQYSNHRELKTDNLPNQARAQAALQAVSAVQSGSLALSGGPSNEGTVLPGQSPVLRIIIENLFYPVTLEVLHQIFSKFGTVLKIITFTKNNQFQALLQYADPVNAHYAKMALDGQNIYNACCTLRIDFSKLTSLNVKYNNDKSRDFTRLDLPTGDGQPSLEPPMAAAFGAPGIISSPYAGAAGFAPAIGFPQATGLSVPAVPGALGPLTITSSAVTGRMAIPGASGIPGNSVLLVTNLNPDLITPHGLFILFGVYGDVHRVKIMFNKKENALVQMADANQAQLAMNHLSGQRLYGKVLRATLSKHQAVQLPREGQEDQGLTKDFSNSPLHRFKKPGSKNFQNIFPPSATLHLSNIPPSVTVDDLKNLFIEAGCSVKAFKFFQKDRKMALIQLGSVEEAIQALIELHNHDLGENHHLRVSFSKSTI
UniProt P67809: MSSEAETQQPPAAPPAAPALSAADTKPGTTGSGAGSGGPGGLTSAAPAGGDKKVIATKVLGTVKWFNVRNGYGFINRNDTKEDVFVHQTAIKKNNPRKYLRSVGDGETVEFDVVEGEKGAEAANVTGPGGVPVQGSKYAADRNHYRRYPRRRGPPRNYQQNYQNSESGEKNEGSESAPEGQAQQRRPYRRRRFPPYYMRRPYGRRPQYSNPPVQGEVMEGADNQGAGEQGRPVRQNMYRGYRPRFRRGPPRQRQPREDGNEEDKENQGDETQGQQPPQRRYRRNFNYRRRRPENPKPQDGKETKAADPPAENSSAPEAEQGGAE

Molecular target: Polypyrimidine tract-binding protein 3 (PTBP3), Flag-tagged (human) (UniProt O95758)
Assay: co-IP; IP and Western blot; precipitated protein, cell line and conditions not stated

binding | Molecule
binds | YBX1 (from UniProt P67809 1-324)
binds | UPF1 (protein, UniProt Q92900 1-1129) MSVEAYGPSSQTLTFLDTEEAELLGADTQGSEFEFTDFTLPSQTQTPPGGPGGPGGGGAGGPGGAGAGAAAGQLDAQVGPEGILQNGAVDDSVAKTSQLLAELNFEEDEEDTYYTKDLPIHACSYCGIHDPACVVYCNTSKKWFCNGRGNTSGSHIVNHLVRAKCKEVTLHKDGPLGETVLECYNCGCRNVFLLGFIPAKADSVVVLLCRQPCASQSSLKDINWDSSQWQPLIQDRCFLSWLVKIPSEQEQLRARQITAQQINKLEELWKENPSATLEDLEKPGVDEEPQHVLLRYEDAYQYQNIFGPLVKLEADYDKKLKESQTQDNITVRWDLGLNKKRIAYFTLPKTDSGNEDLVIIWLRDMRLMQGDEICLRYKGDLAPLWKGIGHVIKVPDNYGDEIAIELRSSVGAPVEVTHNFQVDFVWKSTSFDRMQSALKTFAVDETSVSGYIYHKLLGHEVEDVIIKCQLPKRFTAQGLPDLNHSQVYAVKTVLQRPLSLIQGPPGTGKTVTSATIVYHLARQGNGPVLVCAPSNIAVDQLTEKIHQTGLKVVRLCAKSREAIDSPVSFLALHNQIRNMDSMPELQKLQQLKDETGELSSADEKRYRALKRTAERELLMNADVICCTCVGAGDPRLAKMQFRSILIDESTQATEPECMVPVVLGAKQLILVGDHCQLGPVVMCKKAAKAGLSQSLFERLVVLGIRPIRLQVQYRMHPALSAFPSNIFYEGSLQNGVTAADRVKKGFDFQWPQPDKPMFFYVTQGQEEIASSGTSYLNRTEAANVEKITTKLLKAGAKPDQIGIITPYEGQRSYLVQYMQFSGSLHTKLYQEVEIASVDAFQGREKDFIILSCVRANEHQGIGFLNDPRRLNVALTRARYGVIIVGNPKALSKQPLWNHLLNYYKEQKVLVEGPLNNLRESLMQFSKPRKLVNTINPGARFMTTAMYDAREAIIPGSVYDRSSQGRPSSMYFQTHDQIGMISAGPSHVAAMNIPIPFNLVMPPMPPPGYFGQANGPAAGRGTPKGKTGRGGRQKNRFGLPGPSQTNLPNSQASQDVASQPFSQGALTQGYISMSQPSQMSQPGLSQPELSQDSYLGDEFKSQIDVALSQDSTYQGERAYQHGGVTGLSQY
binds | HNRNPM (protein, UniProt P52272 1-730) MAAGVEAAAEVAATEIKMEEESGAPGVPSGNGAPGPKGEGERPAQNEKRKEKNIKRGGNRFEPYANPTKRYRAFITNIPFDVKWQSLKDLVKEKVGEVTYVELLMDAEGKSRGCAVVEFKMEESMKKAAEVLNKHSLSGRPLKVKEDPDGEHARRAMQKVMATTGGMGMGPGGPGMITIPPSILNNPNIPNEIIHALQAGRLGSTVFVANLDYKVGWKKLKEVFSMAGVVVRADILEDKDGKSRGIGTVTFEQSIEAVQAISMFNGQLLFDRPMHVKMDERALPKGDFFPPERPQQLPHGLGGIGMGLGPGGQPIDANHLNKGIGMGNIGPAGMGMEGIGFGINKMGGMEGPFGGGMENMGRFGSGMNMGRINEILSNALKRGEIIAKQGGGGGGGSVPGIERMGPGIDRLGGAGMERMGAGLGHGMDRVGSEIERMGLVMDRMGSVERMGSGIERMGPLGLDHMASSIERMGQTMERIGSGVERMGAGMGFGLERMAAPIDRVGQTIERMGSGVERMGPAIERMGLSMERMVPAGMGAGLERMGPVMDRMATGLERMGANNLERMGLERMGANSLERMGLERMGANSLERMGPAMGPALGAGIERMGLAMGGGGGASFDRAIEMERGNFGGSFAGSFGGAGGHAPGVARKACQIFVRNLPFDFTWKMLKDKFNECGHVLYADIKMENGKSKGCGVVKFESPEVAERACRMMNGMKLSGREIDVRIDRNA
